{
  "sequences": {"note": "Sequences of proteins named here, by UniProt entry; tags and fusion partners are left off.", "UniProt P61586": "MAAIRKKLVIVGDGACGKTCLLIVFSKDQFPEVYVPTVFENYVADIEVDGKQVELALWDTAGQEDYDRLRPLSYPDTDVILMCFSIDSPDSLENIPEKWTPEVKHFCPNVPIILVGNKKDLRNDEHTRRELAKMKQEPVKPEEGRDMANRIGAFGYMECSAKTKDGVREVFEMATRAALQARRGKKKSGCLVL"},
  "source": "paper PMC4349864",
  "target": "glutathione S-transferase (GST)-fused VopO (Vibrio parahaemolyticus) (UniProt Q87GI7)",
  "assay": "pull-down; purified GST-VopO and glutathione beads incubated with HeLa cell lysate (RIPA buffer) at 4°C for 4 h; beads washed with RIPA buffer; western blot of the eluate; only the target purified",
  "note": "These are yes or no findings as the source states them, for the method shown. In cells and extracts the contact can be indirect.",
  "data": [
    {"substance": "RhoA (endogenous, HeLa cell lysate) (from UniProt P61586 1-193)", "values": [
      {"measurement": "binding", "value": "no binding"}
    ]}
  ]
}
